Measurements published in US20250145724A1.
Results are given in words; binding and its absence hold for the method and conditions named. Some results given as binding are weak or reduced against the parent protein; the word gives no strength.

Target: Adenosine A2A receptor (human) (human) (UniProt P29274)
Test: flow cytometry at 100 nM IgG, HEK293-A2a cells against parent cells

B1: A2A - 2 (antibody, V domains shown)
VH: EVQLLESGAEVKKPGASVKVSCKASGYTFTGYYMHWVRQAPGQGLEWMGWINPNSGGTNYAQKFQGRVTMTRDTSISTAYMELSSLRSEDTAVYYCARGGPFDYWGQGTMVTVSS
VL: ELTLTQSPAFMSATPGDKVNISCKASQDIDDDMNWYQQKPGEAAIFIIQEATTLVPGIPPRFSGSGYGTDFTLTINNIESEDAAYYFCLQHDNFPMYTFGQGTKLEIK
binding: binds
